Test results taken from patent publication US20130273143A1.
These are yes or no findings as the source states them, for the method shown. Binding seen in cells or lysates may run through a third protein. Some results given as binding are weak or reduced against the parent protein; the word gives no strength.

Chains of the proteins cited; added tags and fusions are not shown.
UniProt Q07813: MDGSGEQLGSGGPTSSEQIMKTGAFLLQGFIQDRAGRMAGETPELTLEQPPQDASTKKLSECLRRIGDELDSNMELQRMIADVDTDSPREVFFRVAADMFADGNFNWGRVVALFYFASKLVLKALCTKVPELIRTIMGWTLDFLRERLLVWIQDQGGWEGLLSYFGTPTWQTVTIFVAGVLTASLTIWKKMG

Tests used:
Bax (mouse) [1] = biological target: Bax (mouse) (UniProt Q07813); test: co-immunoprecipitation from mouse heart homogenate, both directions
Bax (mouse) [2] = biological target: Bax (mouse) (UniProt Q07813); test: co-immunoprecipitation with anti-Hsp20 antibody, immunoblot with anti-Bax
Bax (mouse) [3] = biological target: Bax (mouse) (UniProt Q07813); test: co-immunoprecipitation from mouse heart homogenate (anti-Hsp20 or anti-Bax beads), immunoblot

Measured: binding

B1: Heat-Shock Protein Hsp20 (protein, mouse, UniProt Q5EBG6 1-162, looked up)
chain: MEIPVPVQPSWLRRASAPLPGFSAPGRLFDQRFGEGLLEAELASLCPAAIAPYYLRAPSVALPTAQVSTDSGYFSVLLDVKHFLPEEISVKVVDDHVEVHARHEERPDEHGFIAREFHRRYRLPPGVDPAAVTSALSPEGVLSIQATPASAQAQLPSPPAAK
binds: all assays above
